PubChem BioAssay AID504808 – Drosophila RNAi Screening Center – 2011
In all, the deposit lists about 21,000 reagents; below is an unselected part of those that have a named target and a result. Over the whole deposit, 18 (0.084%) were called active. 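Raw counts without plate normalisation, one of two replicates; the ratio scores behind the calls were not deposited.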 A plus sign joins genes that one reagent is predicted to hit. Not stated in the record: the amount of reagent, the time to read-out.

Screen: 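Chromatin factors that keep E2F targets switched off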 (primary screen)
Cell system: Drosophila S2 cells
Reagents: long dsRNA against Drosophila genes
Read-out: 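Dual luciferase plate measurements; E2F-specific signal taken as firefly over Renilla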
Reading the numbers: E2F firefly: higher = more E2F reporter activity; Renilla normaliser: higher = more normaliser reporter signal
Rule for the call: 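Called active if the normalised E2F reporter went up by over 50%; the cutoff is arbitrary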

gene knocked down,amplicon,"E2F firefly, rep 1","Renilla normaliser, rep 1",call
Cmtr1 (Cap methyltransferase 1),DRSC18400,1.17e5,5896,inactive
CG31109,DRSC14648,1.16e5,5842,inactive
CG42322,DRSC15112,58435,3019,inactive
CG42322,DRSC15113,1.27e5,7523,inactive
CG42322,DRSC15114,1.53e5,6842,inactive
dpr4 (defective proboscis extension response 4),DRSC14531,1.71e5,7337,inactive
dpr4 (defective proboscis extension response 4),DRSC14929,1.42e5,6150,inactive
Ttc1 (Tetratricopeptide repeat domain 1),DRSC15016,94869,4696,inactive
puc (puckered),DRSC17034,65077,4581,inactive
CG11286,DRSC14293,1.53e5,7432,inactive
atilla,DRSC02971,1.04e5,4822,inactive
CG5107,DRSC15716,1830,1140,inactive
Dolk (Dolichol kinase),DRSC07143,1.36e5,4901,inactive
angel,DRSC04670,76732,3056,inactive
RpS25 (Ribosomal protein S25),DRSC16837,1.40e5,7527,inactive
Cnot4 (CCR4-NOT transcription complex subunit 4),DRSC02830,1.64e5,5931,inactive
Cnot4 (CCR4-NOT transcription complex subunit 4),DRSC02831,1.61e5,5398,inactive
mi (minus),DRSC04498,99257,197,inactive
CG34165,DRSC01970,94582,4044,inactive
PPYR1 (Protein phosphatase Y regulator 1),DRSC19612,2.04e5,6841,inactive
CG10035,DRSC14177,1.55e5,6508,inactive
CG6495,DRSC01993,74894,3376,inactive
mthl2 (methuselah-like 2),DRSC10287,84482,4071,inactive
PPP4R2r (Protein phosphatase 4 regulatory subunit 2-related protein),DRSC18695,1.32e5,6119,inactive
Amph (Amphiphysin),DRSC07578,2763,206,inactive
CG14495,DRSC06466,1.47e5,5574,inactive
Tmem63 (Transmembrane protein 63),DRSC06063,1.46e5,4797,inactive
Hn (Henna),DRSC11184,78444,3665,inactive
CG17734,DRSC15256,1.43e5,6562,inactive
Inx2 (Innexin 2),DRSC18783,8005,784,inactive
SMC5 (Structural maintenance of chromosomes 5),DRSC11849,74772,2984,inactive

Single entries from above.
Hn (Henna) [DRSC11184], E2F firefly, rep 1 → 78444
Entry for puc (puckered) [DRSC17034] under “E2F firefly, rep 1”: 65077
CG10035 [DRSC14177], E2F firefly, rep 1 → 1.55e5
Value for Cmtr1 (Cap methyltransferase 1) [DRSC18400] in “Renilla normaliser, rep 1”: 5896
For “E2F firefly, rep 1”, CG14495 [DRSC06466] shows 1.47e5
Result for CG6495 [DRSC01993] under “E2F firefly, rep 1”: 74894

More results follow.
gene knocked down,amplicon,"E2F firefly, rep 1","Renilla normaliser, rep 1",call
CG34256,DRSC09582,73869,2701,inactive
CG4576,DRSC15604,1.31e5,6196,inactive
Spn53F (Serpin 53F),DRSC06022,1.47e5,5687,inactive
CG31068,DRSC13820,85064,2365,inactive
CG9192,DRSC08639,95887,4304,inactive
Tsp42En (Tetraspanin 42En),DRSC06185,1.51e5,5097,inactive
CG42758,DRSC10021,1.40e5,6755,inactive
Vha100-1 (Vacuolar H[+] ATPase 100kD subunit 1),DRSC14148,1773,1032,inactive
CG12546,DRSC11676,92994,6470,inactive
dgrn (degringolade),DRSC12154,70263,3217,inactive
ZC3H3,DRSC10696,42041,3496,inactive
r2d2,DRSC03014,1.32e5,4936,inactive
qua (quail),DRSC03598,89145,3851,inactive
Hnf4 (Hepatocyte nuclear factor 4),DRSC01032,1.41e5,6966,inactive
Hnf4 (Hepatocyte nuclear factor 4),DRSC03344,44754,3508,inactive
CG9483,DRSC03226,81891,3549,inactive
rush (rush hour),DRSC18568,2046,960,inactive
CR31822 (pseudo),DRSC01510,1.38e5,7111,inactive
CG33689,DRSC09424,1.37e5,3893,inactive
CG31544 (retired record),DRSC12466,64300,3845,inactive
COX2 (retired record),DRSC21276,1.43e5,6805,inactive
CG4835,DRSC10452,1.02e5,4365,inactive
CG3502 + CG9863,DRSC04578,1.08e5,4454,inactive
ea (easter),DRSC16939,1.11e5,5091,inactive
sicily (severe impairment of CI with lengthened youth),DRSC19704,1.27e5,6172,inactive
CG15533,DRSC15069,1.32e5,6606,inactive
escl,DRSC02828,85868,3123,inactive
eIF5B (eukaryotic translation initiation factor 5B),DRSC08429,99852,4169,inactive
eIF5B (eukaryotic translation initiation factor 5B),DRSC08710,1.14e5,4155,inactive
Hayan,DRSC19989,1.55e5,6027,inactive
HBS1,DRSC08544,87675,4106,inactive
Roc2 (Regulator of cullins 2),DRSC07313,93980,3788,inactive
Kdm2 (Lysine demethylase 2),DRSC14286,65490,3047,inactive
CG13526,DRSC04168,95420,4141,inactive
CG6707,DRSC10697,1.08e5,6427,inactive
CG15239,DRSC17972,1.27e5,5748,inactive
CG2209,DRSC19843,1.21e5,6307,inactive
CG15631,DRSC00466,1.33e5,4834,inactive
alien,DRSC03482,85142,3651,inactive
"Arpc4 (Actin-related protein 2/3 complex, subunit 4)",DRSC02917,1.64e5,5683,inactive
CG32391,DRSC08865,1.27e5,4706,inactive
sn (singed),DRSC18834,50037,3681,inactive
stol (stolid),DRSC01956,97367,4255,inactive
nab,DRSC08455,91647,4561,inactive
nab,DRSC08456,1.09e5,4335,inactive
CG14696,DRSC14919,1.25e5,6357,inactive
fan (farinelli),DRSC10930,1.00e5,3831,inactive
beag,DRSC15296,65337,3693,inactive
nom (numerous disordered muscles),DRSC16389,1.38e5,6681,inactive
mAcon2 (Mitochondrial aconitase 2),DRSC15629,1.40e5,6184,inactive
CG43737,DRSC19609,1.48e5,5985,inactive
brn (brainiac),DRSC18746,1532,764,inactive
Rb97D (Ribonuclear protein at 97D),DRSC16815,1.18e5,5706,inactive
